# Patent US12257237B2 (priority 2017, dated 2025)
# “And” between values parts separate entries of the source, which are not always exact repeats. Equal entries are not always repeated. This continues a long series; more values of the same kind are listed elsewhere.
# Assays:
# TC-71 Ewing sarcoma = assay: Antitumour activity in TC-71 Ewing sarcoma xenograft model; format: in vivo, Athymic nude mice; conditions: 50 mg/kg i.v. q7dx3
# Protocol: (§1) Experiments were performed with female Athymic nude mice, 9-10 weeks old obtained from Harlan Laboratories (Udine, Italy). They were maintained under Specific Pathogen Free conditions with constant temperature and humidity, according to the institutional guidelines.
# (§2) Tumour growth mice was monitored two/three times a week (depending on tumour growth rate, to avoid unnecessary stress to the animals) by Vernier caliper. Mice were sacrificed when tumour reached a mean weight of 2±0.5 gr. The antitumour activity will be expressed as T/C %, where T and C were the mean tumour weight of treated and control groups, respectively. Mice were monitored daily and weighted at least two times a week. Tolerability was evaluated on the basis of body weight loss (BWL) and clinical observation.
# (§3) Statistical analysis was performed with GraphPad Prism version 6.01 software (GraphPad software, Inc., La Jolla, CA, USA). ANOVA test was performed to evaluate if there were statistically significant differences between treated and control groups.
# 5×10^6 TC-71 cells were inoculated subcutaneously in the right flank of mice. The growing tumour masses were measured with the aid of a Vernier caliper, and the tumour weights (1 mm^3=1 mg) were calculated by the formula: length×(width) 2/2. When tumour load achieved about 100 mg, mice were randomized into the experimental groups and treatment started.
# [1] = tested on: DD013 dedifferentiated liposarcoma; assay: Antitumour activity in DD013 dedifferentiated liposarcoma xenograft model; format: in vivo, Athymic nude mice; conditions: Doxorubicin 8 mg/kg q7dx2
# Protocol: as §1, §2, §3
# Briefly, xenografts were obtained by transplanting 3-4 mm tumour fragments s.c. in the flanks of mice. The growing tumour masses were measured with the aid of a Vernier caliper, and the tumour weights (TW, 1 mm^3=1 mg) were calculated by the formula: length×(width) 2/2. When tumour load achieved about 200-400 mg, mice were randomized into the experimental groups.
Structure (SMILES),"TC-71 tumour weight, individual mice (TC-71 Ewing sarcoma; day 9 from inoculum)","TC-71 tumour weight, individual mice (TC-71 Ewing sarcoma; day 16 from inoculum)","TC-71 tumour weight, individual mice (TC-71 Ewing sarcoma; day 18 from inoculum)","TC-71 tumour weight, individual mice (TC-71 Ewing sarcoma; day 25 from inoculum)","DD0113 tumour weight, individual mouse ([1]; day 65 from inoculum)","DD0113 tumour weight, individual mouse ([1]; day 69 from inoculum)"
"CCc1c2c(nc3ccc(OC(=O)N4CCC(N5CCCCC5)CC4)cc13)-c1cc3c(c(=O)n1C2)COC(=O)[C@]3(O)CC [Irinotecan, reference compound]",77.9 mg and 61.1 mg and 51.2 mg and 28.4 mg,5.1 mg and 7.0 mg and 6.9 mg and 22.9 mg,1.9 mg and 2.3 mg and 5.1 mg and 16.6 mg,7.2 mg and 3.1 mg,–,–
"COc1cccc2c1C(=O)c1c(O)c3c(c(O)c1C2=O)C[C@@](O)(C(=O)CO)C[C@@H]3O[C@H]1C[C@H](N)[C@H](O)[C@H](C)O1 [Doxorubicin, reference compound]",–,–,–,–,837.9 mg and 1390.9 mg and 744.7 mg and 532.1 mg,909.3 mg and 1605.4 mg and 834.8 mg and 860.3 mg
